Measured values reported in article PMC7260189.
These are yes or no findings as the source states them, for the method shown. In cells and extracts the contact can be indirect. Some entries that bind do so weakly or less than the wild type. For some of these results: Tags and fused reporters may be left off the sequences shown.

Sequences of proteins named here, by UniProt entry; tags and fusion partners are left off. A change or cut given only in a name is not applied to a line headed by its entry. A line that says so, or that is headed by a name, gives the form on record, which may keep a tag or linker.
UniProt O95817: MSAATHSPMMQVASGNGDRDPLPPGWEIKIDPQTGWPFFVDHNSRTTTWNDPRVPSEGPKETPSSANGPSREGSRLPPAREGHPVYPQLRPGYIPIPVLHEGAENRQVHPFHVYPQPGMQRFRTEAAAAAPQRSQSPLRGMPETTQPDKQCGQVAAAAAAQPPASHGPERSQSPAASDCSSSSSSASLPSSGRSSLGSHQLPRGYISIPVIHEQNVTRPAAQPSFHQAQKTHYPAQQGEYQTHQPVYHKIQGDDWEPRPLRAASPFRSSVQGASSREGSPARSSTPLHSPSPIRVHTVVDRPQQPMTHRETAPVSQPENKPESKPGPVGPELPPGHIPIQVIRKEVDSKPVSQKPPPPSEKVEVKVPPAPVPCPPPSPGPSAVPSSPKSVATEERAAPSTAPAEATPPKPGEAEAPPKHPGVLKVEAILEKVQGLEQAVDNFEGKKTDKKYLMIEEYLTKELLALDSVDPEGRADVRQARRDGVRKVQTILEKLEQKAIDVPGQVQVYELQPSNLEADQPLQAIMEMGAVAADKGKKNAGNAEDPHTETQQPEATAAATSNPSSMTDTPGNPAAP
BAG3_Glu455Lys-GFP (O95817, form named): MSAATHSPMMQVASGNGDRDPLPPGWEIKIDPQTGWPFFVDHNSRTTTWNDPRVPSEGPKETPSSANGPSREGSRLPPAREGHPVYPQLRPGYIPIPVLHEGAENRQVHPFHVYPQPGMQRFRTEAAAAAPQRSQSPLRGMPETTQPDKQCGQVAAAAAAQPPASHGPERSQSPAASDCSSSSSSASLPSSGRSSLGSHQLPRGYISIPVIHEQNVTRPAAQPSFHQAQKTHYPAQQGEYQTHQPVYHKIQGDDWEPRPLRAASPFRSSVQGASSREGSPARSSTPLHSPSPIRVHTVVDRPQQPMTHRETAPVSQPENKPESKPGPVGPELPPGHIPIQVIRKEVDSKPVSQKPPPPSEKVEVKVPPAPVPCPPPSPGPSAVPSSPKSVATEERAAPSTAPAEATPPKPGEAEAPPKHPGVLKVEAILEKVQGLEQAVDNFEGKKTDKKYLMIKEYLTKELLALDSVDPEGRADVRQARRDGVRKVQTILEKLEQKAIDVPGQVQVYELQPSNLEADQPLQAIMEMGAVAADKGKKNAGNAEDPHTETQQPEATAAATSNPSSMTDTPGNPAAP
BAG3_Pro209Gln-GFP (O95817, form named): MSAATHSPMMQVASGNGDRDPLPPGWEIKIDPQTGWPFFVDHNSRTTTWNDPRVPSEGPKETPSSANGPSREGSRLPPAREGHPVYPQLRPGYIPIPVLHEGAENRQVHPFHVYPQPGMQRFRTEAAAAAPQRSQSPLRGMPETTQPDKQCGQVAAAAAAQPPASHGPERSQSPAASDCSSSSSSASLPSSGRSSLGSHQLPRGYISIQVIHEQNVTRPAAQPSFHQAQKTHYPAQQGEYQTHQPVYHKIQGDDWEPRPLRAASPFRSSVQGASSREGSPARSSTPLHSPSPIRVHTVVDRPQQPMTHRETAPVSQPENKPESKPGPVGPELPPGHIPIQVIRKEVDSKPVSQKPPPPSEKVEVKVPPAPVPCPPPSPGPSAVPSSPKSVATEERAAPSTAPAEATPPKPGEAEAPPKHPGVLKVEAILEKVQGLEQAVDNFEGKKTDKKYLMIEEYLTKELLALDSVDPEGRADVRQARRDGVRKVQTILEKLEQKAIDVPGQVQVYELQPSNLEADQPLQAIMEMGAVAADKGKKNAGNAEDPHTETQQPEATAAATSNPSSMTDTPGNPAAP
BAG3_Pro209Leu-GFP (O95817, form named): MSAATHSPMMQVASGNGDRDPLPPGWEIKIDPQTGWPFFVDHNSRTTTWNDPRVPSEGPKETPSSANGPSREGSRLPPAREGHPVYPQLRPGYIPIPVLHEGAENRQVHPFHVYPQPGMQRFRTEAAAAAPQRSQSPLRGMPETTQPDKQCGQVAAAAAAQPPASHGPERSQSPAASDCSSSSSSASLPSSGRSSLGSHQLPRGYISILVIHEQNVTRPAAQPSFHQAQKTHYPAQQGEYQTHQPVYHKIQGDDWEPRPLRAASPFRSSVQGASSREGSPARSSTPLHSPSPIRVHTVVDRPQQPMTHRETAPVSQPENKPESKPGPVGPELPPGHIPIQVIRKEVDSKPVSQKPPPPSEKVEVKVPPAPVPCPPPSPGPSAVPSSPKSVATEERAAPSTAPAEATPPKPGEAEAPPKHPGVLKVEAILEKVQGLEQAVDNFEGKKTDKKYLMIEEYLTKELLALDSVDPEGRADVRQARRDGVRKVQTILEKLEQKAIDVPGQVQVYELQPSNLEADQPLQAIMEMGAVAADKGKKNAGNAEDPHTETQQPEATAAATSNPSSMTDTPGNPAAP
BAG3_Pro209Ser-GFP (O95817, form named): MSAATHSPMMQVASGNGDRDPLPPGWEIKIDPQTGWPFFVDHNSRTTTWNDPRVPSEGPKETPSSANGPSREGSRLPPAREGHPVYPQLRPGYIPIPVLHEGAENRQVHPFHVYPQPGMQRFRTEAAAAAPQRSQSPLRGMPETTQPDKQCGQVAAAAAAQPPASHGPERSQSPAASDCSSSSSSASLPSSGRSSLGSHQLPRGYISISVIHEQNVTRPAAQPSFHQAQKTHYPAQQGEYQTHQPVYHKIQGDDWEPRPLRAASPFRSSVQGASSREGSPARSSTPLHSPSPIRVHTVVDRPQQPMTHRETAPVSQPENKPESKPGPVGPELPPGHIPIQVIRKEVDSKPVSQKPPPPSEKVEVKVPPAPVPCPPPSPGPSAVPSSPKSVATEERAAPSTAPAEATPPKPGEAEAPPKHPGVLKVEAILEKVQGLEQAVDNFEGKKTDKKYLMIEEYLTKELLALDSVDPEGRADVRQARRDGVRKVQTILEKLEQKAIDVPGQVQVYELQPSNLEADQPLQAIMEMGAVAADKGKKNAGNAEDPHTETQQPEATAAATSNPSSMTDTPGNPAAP

Legend:
[1] = biological target: T1, HSPB8 (endogenous, HeLa) (human (endogenous in HeLa)) (UniProt Q9UJY1); test: co-IP; reverse experiment: HSPB8 precipitated with home-made rabbit HSPB8 antibody on Rabbit TrueBlot beads from lysates of HeLa cells transfected with BAG3-GFP constructs, 24 h after transfection; 1 h at 4 °C; 150 mM NaCl, 0.5% NP40, 1.5 mM MgCl2, 20 mM Tris-HCl pH 7.4, 3% glycerol, 1 mM DTT; rabbit serum as control
T1 sequence: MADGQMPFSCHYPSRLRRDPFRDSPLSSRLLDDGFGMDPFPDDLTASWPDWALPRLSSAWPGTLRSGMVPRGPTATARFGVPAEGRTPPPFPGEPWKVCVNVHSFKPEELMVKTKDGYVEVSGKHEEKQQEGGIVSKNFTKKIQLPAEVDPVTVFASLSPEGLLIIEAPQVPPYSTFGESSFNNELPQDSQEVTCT

[2] = biological target: BAG3_Glu455Lys-GFP (human) (UniProt O95817); test: co-IP; BAG3-GFP captured on GFP-Trap beads from the NP-40-soluble lysate of HEK293T cells stably expressing HSPB8-V5, 48 h after transfection; 1 h at 4 °C; 20 mM Tris-HCl pH 7.4, 2.5 mM MgCl2, 100 mM KCl, 0.5% Nonidet P-40; blots for GFP, V5, SQSTM1/p62 and Hsp70/Hsc70
[3] = biological target: BAG3_Pro209Gln-GFP (human) (UniProt O95817); test: as above
[4] = biological target: BAG3_Pro209Leu-GFP (human) (UniProt O95817); test: as above
[5] = biological target: BAG3_Pro209Ser-GFP (human) (UniProt O95817); test: as above
[6] = biological target: wild type BAG3-GFP (Bcl2-associated athanogene 3) (human) (UniProt O95817); test: as above

| Molecule | binding [1] | also measured |
| --- | --- | --- |
| BAG3_Glu455Lys-GFP (from UniProt O95817 1-575) | binds |  |
| BAG3_Pro209Gln-GFP (from UniProt O95817 1-575) | binds |  |
| BAG3_Pro209Leu-GFP (from UniProt O95817 1-575) | binds |  |
| BAG3_Pro209Ser-GFP (from UniProt O95817 1-575) | binds |  |
| wild type BAG3-GFP (Bcl2-associated athanogene 3) (from UniProt O95817 1-575) | binds |  |
| HSPB8-V5 (protein, UniProt Q9UJY1 1-196) MADGQMPFSCHYPSRLRRDPFRDSPLSSRLLDDGFGMDPFPDDLTASWPDWALPRLSSAWPGTLRSGMVPRGPTATARFGVPAEGRTPPPFPGEPWKVCVNVHSFKPEELMVKTKDGYVEVSGKHEEKQQEGGIVSKNFTKKIQLPAEVDPVTVFASLSPEGLLIIEAPQVPPYSTFGESSFNNELPQDSQEVTCT |  | binding [2]: binds; binding [3]: binds; binding [4]: binds; binding [5]: binds; binding [6]: binds |
